Measured values from the supplement of paper PMC10849652.
The list shows a part of the results.

Sequences of proteins named here, by UniProt entry; tags and fusion partners are left off. A change or cut given only in a name is not applied to a line headed by its entry.
UniProt O75874, whole entry, looked up: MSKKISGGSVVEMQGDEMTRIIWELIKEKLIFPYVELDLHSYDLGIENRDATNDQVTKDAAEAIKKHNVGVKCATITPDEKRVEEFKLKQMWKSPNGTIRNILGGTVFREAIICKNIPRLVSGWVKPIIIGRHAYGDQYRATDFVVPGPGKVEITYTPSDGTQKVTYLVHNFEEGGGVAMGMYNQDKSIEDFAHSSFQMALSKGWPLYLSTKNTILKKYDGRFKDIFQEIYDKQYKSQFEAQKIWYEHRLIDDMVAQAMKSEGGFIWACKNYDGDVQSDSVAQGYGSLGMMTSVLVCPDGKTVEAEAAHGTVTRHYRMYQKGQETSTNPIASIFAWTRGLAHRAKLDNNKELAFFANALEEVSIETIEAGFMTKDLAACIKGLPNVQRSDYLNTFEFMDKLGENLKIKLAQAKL
UniProt Q9NX62: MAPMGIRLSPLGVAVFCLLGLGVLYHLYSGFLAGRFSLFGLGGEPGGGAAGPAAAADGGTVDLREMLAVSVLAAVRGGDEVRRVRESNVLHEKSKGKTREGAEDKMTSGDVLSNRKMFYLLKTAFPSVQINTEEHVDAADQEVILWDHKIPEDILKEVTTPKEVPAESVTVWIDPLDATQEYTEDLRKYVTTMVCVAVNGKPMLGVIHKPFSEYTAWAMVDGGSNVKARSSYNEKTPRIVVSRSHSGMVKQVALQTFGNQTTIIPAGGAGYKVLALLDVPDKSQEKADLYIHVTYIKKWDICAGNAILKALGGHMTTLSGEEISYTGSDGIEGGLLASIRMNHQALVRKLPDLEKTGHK
UniProt P04792, whole entry, looked up: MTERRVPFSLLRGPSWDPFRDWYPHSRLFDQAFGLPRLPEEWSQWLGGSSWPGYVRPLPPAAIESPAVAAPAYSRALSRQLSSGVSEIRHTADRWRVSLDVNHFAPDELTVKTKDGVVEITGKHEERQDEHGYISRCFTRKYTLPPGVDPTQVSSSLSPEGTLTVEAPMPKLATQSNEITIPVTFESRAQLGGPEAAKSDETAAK
UniProt Q659A1: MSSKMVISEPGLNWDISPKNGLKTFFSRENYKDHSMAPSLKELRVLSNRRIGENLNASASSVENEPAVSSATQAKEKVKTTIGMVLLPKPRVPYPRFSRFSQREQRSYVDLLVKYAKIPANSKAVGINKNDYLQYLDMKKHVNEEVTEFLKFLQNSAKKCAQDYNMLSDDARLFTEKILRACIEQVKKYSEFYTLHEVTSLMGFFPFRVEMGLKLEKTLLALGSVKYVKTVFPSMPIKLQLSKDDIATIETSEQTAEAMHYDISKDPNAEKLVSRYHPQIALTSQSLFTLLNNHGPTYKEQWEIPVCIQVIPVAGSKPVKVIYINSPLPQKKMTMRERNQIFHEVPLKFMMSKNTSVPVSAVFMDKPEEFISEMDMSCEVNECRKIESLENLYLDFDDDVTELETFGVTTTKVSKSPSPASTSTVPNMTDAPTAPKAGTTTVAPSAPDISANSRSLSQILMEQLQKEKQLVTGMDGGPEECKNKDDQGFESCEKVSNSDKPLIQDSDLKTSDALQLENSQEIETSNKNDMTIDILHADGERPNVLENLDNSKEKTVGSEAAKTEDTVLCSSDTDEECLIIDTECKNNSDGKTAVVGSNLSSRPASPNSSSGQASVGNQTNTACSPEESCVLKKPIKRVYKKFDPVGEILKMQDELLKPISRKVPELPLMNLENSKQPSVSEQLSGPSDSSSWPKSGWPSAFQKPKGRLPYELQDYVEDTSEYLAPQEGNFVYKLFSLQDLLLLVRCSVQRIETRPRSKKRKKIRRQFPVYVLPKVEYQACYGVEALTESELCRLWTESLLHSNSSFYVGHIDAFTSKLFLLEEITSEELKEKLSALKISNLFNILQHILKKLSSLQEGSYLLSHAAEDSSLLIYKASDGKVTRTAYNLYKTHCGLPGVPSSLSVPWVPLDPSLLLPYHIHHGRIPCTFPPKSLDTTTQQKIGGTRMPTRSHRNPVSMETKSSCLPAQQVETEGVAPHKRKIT
UniProt Q12894: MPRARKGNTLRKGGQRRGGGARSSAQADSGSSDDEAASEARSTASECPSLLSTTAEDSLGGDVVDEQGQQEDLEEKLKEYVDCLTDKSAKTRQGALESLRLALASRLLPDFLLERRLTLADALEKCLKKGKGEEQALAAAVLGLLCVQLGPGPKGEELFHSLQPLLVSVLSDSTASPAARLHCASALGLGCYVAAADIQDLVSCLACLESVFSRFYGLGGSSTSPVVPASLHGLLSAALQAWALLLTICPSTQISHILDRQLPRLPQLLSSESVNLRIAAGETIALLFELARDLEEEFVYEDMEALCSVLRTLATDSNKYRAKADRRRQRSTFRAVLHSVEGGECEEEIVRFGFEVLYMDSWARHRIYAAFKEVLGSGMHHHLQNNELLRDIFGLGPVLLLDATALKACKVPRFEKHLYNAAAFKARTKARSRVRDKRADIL
UniProt Q9BUP3: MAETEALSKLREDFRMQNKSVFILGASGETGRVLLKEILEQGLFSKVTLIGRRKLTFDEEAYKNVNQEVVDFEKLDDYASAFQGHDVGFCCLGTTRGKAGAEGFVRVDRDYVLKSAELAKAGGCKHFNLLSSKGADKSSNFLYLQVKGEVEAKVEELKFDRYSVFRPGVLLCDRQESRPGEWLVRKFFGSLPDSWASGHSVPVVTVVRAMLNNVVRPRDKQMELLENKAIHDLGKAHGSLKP
UniProt Q27J81, whole entry, looked up: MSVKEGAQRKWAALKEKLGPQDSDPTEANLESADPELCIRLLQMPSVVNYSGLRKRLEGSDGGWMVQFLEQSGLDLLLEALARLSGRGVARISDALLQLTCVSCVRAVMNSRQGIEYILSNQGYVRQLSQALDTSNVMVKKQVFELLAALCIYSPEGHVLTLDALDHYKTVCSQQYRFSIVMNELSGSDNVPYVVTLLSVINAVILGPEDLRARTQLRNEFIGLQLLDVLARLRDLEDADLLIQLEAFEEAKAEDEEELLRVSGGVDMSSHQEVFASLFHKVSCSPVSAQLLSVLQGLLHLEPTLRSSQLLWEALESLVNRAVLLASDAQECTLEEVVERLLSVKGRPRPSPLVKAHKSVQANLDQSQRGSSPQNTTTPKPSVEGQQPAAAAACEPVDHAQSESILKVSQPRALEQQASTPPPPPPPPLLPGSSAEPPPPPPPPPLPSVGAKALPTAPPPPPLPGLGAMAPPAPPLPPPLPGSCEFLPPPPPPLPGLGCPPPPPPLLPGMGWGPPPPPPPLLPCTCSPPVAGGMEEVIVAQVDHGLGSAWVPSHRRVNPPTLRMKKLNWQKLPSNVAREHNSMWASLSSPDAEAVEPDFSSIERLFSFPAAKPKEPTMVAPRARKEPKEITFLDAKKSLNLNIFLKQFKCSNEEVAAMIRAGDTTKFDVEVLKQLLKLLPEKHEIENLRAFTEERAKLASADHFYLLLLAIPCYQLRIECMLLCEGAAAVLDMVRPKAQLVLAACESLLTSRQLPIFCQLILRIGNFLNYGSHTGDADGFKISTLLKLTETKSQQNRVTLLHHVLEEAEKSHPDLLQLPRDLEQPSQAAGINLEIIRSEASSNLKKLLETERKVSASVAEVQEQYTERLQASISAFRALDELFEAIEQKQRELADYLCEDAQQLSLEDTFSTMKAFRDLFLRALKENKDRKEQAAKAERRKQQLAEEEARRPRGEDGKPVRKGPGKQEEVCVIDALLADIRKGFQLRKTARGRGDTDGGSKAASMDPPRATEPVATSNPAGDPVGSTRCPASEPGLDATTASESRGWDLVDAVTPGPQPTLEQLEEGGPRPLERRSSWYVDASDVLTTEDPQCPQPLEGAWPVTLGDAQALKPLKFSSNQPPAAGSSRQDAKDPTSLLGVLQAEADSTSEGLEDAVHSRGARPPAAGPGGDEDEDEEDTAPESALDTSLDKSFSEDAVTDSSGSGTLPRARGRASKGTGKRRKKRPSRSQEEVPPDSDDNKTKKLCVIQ
UniProt O75054: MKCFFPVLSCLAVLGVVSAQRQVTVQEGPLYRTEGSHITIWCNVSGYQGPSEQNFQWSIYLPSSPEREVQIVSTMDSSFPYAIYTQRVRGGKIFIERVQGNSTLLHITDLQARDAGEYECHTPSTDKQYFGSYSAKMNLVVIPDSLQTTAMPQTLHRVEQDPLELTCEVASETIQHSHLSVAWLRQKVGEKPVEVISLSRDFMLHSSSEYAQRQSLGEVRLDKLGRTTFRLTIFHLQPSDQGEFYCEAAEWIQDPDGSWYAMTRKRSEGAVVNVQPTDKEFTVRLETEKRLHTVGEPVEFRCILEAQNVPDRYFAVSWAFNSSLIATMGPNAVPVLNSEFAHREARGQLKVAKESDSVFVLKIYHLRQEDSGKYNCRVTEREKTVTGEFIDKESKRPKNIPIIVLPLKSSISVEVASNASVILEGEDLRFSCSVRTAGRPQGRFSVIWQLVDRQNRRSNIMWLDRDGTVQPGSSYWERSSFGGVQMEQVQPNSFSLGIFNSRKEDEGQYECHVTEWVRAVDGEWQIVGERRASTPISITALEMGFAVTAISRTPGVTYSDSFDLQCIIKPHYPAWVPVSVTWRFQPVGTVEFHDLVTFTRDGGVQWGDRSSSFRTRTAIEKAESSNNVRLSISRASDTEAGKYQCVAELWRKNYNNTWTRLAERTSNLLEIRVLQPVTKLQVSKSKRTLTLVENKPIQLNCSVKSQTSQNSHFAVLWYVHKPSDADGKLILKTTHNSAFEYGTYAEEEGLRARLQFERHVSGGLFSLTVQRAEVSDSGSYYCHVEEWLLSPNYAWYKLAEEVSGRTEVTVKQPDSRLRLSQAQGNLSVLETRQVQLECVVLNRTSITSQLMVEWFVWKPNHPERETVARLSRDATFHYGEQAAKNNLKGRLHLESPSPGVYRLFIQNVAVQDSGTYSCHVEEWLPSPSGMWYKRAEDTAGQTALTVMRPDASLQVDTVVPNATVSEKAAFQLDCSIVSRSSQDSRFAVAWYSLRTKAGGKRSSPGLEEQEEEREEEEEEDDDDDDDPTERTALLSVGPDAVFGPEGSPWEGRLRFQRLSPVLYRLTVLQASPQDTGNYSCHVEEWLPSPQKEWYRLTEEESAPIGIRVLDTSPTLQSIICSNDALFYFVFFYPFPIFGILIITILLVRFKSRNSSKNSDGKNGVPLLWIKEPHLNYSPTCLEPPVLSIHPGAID
UniProt Q9NXR8, whole entry, looked up: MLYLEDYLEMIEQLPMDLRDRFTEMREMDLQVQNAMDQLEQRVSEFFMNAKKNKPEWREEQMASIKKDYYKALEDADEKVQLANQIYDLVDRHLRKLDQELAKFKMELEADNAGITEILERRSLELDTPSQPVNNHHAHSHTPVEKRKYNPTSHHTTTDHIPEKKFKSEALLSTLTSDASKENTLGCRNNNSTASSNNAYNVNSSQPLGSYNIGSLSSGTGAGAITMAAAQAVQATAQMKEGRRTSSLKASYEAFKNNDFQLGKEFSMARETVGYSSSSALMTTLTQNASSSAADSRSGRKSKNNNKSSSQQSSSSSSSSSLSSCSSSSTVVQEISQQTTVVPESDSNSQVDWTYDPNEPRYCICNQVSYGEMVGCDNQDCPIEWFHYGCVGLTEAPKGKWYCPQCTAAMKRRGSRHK
UniProt Q13123, whole entry, looked up: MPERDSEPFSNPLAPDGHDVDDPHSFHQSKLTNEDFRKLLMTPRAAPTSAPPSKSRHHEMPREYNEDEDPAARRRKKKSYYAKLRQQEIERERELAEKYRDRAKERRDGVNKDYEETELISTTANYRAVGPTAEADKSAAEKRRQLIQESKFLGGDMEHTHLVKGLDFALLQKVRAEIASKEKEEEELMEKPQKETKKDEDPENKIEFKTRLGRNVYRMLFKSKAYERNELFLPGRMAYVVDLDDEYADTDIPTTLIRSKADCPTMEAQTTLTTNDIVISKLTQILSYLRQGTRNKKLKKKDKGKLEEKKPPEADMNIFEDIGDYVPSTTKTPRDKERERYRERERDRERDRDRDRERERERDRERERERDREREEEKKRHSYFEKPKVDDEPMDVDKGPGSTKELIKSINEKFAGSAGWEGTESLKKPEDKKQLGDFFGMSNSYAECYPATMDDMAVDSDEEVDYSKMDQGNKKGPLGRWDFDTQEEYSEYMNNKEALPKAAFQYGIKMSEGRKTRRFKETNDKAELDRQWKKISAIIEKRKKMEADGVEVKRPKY
UniProt P51553: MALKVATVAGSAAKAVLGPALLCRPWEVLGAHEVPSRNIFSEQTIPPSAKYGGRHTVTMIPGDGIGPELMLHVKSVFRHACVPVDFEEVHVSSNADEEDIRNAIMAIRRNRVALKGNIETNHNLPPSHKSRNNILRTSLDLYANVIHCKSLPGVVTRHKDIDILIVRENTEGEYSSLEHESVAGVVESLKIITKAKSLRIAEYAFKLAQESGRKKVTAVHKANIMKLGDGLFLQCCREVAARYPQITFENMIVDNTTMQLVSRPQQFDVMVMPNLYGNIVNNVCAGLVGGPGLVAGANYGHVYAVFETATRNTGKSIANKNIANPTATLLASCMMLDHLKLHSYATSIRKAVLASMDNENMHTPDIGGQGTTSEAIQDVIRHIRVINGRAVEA

Legend:
Assay in all cases: log2 fold change, soluble protein after heating vs DMSO (PISA); higher = thermal stabilisation; K562 lysate, 10 uM; active = over 0.2 and 3.5 SD of the protein, either way, in both replicates (recomputed)
[1] = compound: C#Cc1cccc(Nc2ncnc3cc(OCCOC)c(OCCOC)cc23)c1 [erlotinib]
Outline: (§1)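 Quantification was by TMTpro 16plex LC-MS/MS with equalised channel sums, applied to the supernatant after 21,000xg for 90 min. Samples were crude K562 extract at 1 mg/mL protein in PBS pH 7.4 with 1 mM MgCl2, treated with 10 μM compound for 30 min, heated for 3 min across 48°C-58°C, pooled and brought to 0.5% NP-40 at 4°C. Values are log-two fold changes in thermal stability relative to solvent controls, from duplicates.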

[2] = compound: C/C(=N\NC(=O)C1=CC(=CC=C1)S(=O)(=O)N2CCOCC2)/C3=C(C=CC(=C3)Cl)O
Outline: as §1

[3] = compound: C1=CC(=CC=C1C2=NC3=C(N2)C=C(C=C3)C(=O)N)OC4=CC=C(C=C4)Cl
Outline: as §1

[4] = compound: C1=CC2=C(C=CC(=C2)/C=C\3/C(=O)NC(=NCC4=CC=CS4)S3)N=C1
Outline: as §1

[5] = compound: C1=CC2=NC=CN=C2C=C1/C=C/3\C(=O)NC(=O)S3
Outline: as §1

[6] = compound: C1=CC=C(C=C1)C2=NC(=C(N2)C3=CC=NC=C3)C4=CC(=C(C=C4)Cl)O
Outline: as §1

[7] = compound: C1=CC=C2C(=C1)C3=NNC4=CC=CC(=C43)C2=O
Outline: as §1

[8] = compound: C1CCN(C1)C(=O)NC2=CC=CC(=C2)NC3=NC=C(C(=N3)NCCC4=CN=CN4)Br
Outline: as §1

[9] = compound: C1CN(CCC1(CC2=CC=C(C=C2)Cl)N)C3=NC=NC4=C3C=CN4
Outline: as §1

[10] = compound: C1COCCN1CCN2C3=CC=CC=C3N=C2NC(=O)C4=CC(=CC=C4)[N+](=O)[O-] [IRAK-1-4 Inhibitor I]
Outline: as §1

Measured: log2 fold change

IBA57 (UniProt Q5T440)
inactive: [1] -0.049 | [2] -0.036 | [3] 0.02 | [4] -0.009 | [5] -0.015 | [6] -0.019 | [7] -0.002 | [8] 0.007 | [9] -0.029 | [10] -0.007

IDH1 (UniProt O75874)
inactive: [1] 0.032 | [2] 0.045 | [3] 0.017 | [4] 0.046 | [5] 0.014 | [6] -0.019 | [7] 0.016 | [8] 0.005 | [9] 0.024 | [10] 0.005

IMPDH2 (UniProt P12268)
inactive: [1] 0.001 | [2] -0.009 | [3] -0.018 | [4] -0.018 | [5] -0.013 | [6] -0.028 | [7] -0.003 | [8] 0.019 | [9] -0.003 | [10] 0.011

IMPAD1 (UniProt Q9NX62)
inactive: [1] -0.032 | [2] 0.002 | [3] 0.028 | [4] 0.017 | [5] 0.025 | [6] -0.007 | [7] -0.027 | [8] 0.019 | [9] -0.006 | [10] -0.023

HSPB1 (UniProt P04792)
inactive: [1] 0.004 | [2] -0.03 | [3] 0.03 | [4] -0.012 | [5] 0.001 | [6] -0.009 | [7] 0.034 | [8] -0.013 | [9] -0.025 | [10] 0.006

ICE2 (UniProt Q659A1)
inactive: [1] 0.045 | [2] 0.029 | [3] 0.052 | [4] -0.037 | [5] -0.084 | [6] 0.067 | [7] 0.03 | [8] 0.007 | [9] 0.038 | [10] 0.036

IFRD2 isoform 2 (UniProt Q12894)
inactive: [1] -0.084 | [2] -0.123 | [3] -0.032 | [4] -0.068 | [5] 0.144 | [6] 0.01 | [7] 0 | [8] 0.087 | [9] -0.015 | [10] 0.024

IFT80 isoform 3 (UniProt Q9P2H3)
inactive: [1] -0.009 | [2] -0.077 | [3] 0.009 | [4] -0.054 | [5] 0.106 | [6] -0.06 | [7] -0.099 | [8] -0.009 | [9] 0.045 | [10] -0.048

HTATIP2 isoform 3 (UniProt Q9BUP3)
inactive: [1] 0.011 | [2] -0.017 | [3] -0.003 | [4] 0.031 | [5] 0.004 | [6] -0.009 | [7] -0.04 | [8] -0.051 | [9] -0.051 | [10] -0.009

INPP5B (UniProt P32019)
inactive: [1] 0.021 | [2] 0.02 | [3] -0.004 | [4] 0.017 | [5] -0.01 | [6] 0.004 | [7] -0.034 | [8] -0.025 | [9] 0.029 | [10] 0.025

INF2 (UniProt Q27J81)
inactive: [1] 0.004 | [2] -0.014 | [3] -0.027 | [4] 0.069 | [5] 0.004 | [6] -0.024 | [7] -0.019 | [8] 0.031 | [9] 0.056 | [10] -0.011

IGF2BP1 (UniProt Q9NZI8)
inactive: [1] 0.032 | [2] 0.031 | [3] -0.017 | [4] 0.016 | [5] 0.012 | [6] 0.037 | [7] -0.011 | [8] 0.01 | [9] 0 | [10] -0.026

IKBKB (UniProt O14920)
inactive: [1] 0.03 | [2] 0.016 | [3] 0.005 | [4] 0.014 | [5] -0.04 | [6] -0.043 | [7] -0.023 | [8] -0.045 | [9] -0.029 | [10] 0.002

IARS2 (UniProt Q9NSE4)
inactive: [1] -0.025 | [2] 0.014 | [3] 0.026 | [4] 0.005 | [5] 0.013 | [6] -0.007 | [7] -0.043 | [8] -0.01 | [9] 0.054 | [10] 0.016

IGSF3 (UniProt O75054)
inactive: [1] -0.015 | [2] -0.043 | [3] -0.015 | [4] 0.057 | [5] 0.038 | [6] -0.009 | [7] -0.002 | [8] -0.017 | [9] -0.011 | [10] 0.03

Reprinted at random: 2 entries already listed.
HSPB1 (UniProt P04792)
inactive: [1] 0.004 | [2] -0.03 | [3] 0.03 | [4] -0.012 | [5] 0.001 | [6] -0.009 | [7] 0.034 | [8] -0.013 | [9] -0.025 | [10] 0.006

INF2 (UniProt Q27J81)
inactive: [1] 0.004 | [2] -0.014 | [3] -0.027 | [4] 0.069 | [5] 0.004 | [6] -0.024 | [7] -0.019 | [8] 0.031 | [9] 0.056 | [10] -0.011

Next part

ING3 (UniProt Q9NXR8)
inactive: [1] -0.038 | [2] -0.038 | [3] 0.066 | [4] 0.037 | [5] 0.051 | [6] -0.126 | [7] 0.087 | [8] -0.028 | [9] 0.015 | [10] -0.005

IMMT (UniProt C9J406)
inactive: [1] 0.077 | [2] 0.041 | [3] -0.028 | [4] 0.001 | [5] 0.043 | [6] 0.028 | [7] -0.032 | [8] -0.222 | [9] 0.325 | [10] -0.016

IK (UniProt Q13123)
inactive: [1] -0.037 | [2] 0.004 | [3] 0.021 | [4] -0.001 | [5] 0.026 | [6] 0.052 | [7] 0.017 | [8] -0.014 | [9] 0.01 | [10] 0.027

IDH3A (UniProt P50213)
inactive: [1] -0.003 | [2] -0.012 | [3] 0.018 | [4] -0.013 | [5] 0.011 | [6] -0.006 | [7] 0.046 | [8] -0.011 | [9] -0.028 | [10] 0.007

INTS13 (UniProt Q9NVM9)
inactive: [1] -0.001 | [2] 0.064 | [3] -0.026 | [4] 0.01 | [5] -0.035 | [6] 0.015 | [7] -0.014 | [8] 0.017 | [9] -0.004 | [10] -0.015

IMPACT (UniProt Q9P2X3)
inactive: [1] -0.03 | [2] 0.13 | [3] 0.014 | [4] 0.083 | [5] 0.043 | [6] 0.056 | [7] 0.001 | [8] 0.06 | [9] -0.082 | [10] -0.076

INPPL1 (UniProt O15357)
inactive: [1] -0.01 | [2] -0.034 | [3] -0.018 | [4] -0.052 | [5] -0.006 | [6] -0.02 | [7] -0.051 | [8] -0.021 | [9] 0.003 | [10] -0.034

INPP5A (UniProt Q14642)
inactive: [1] 0.001 | [2] 0.055 | [3] 0.042 | [4] -0.096 | [5] -0.14 | [6] -0.014 | [7] -0.04 | [8] 0.148 | [9] -0.319 | [10] -0.144

IMP3 (UniProt Q9NV31)
inactive: [1] -0.008 | [2] -0.109 | [3] 0.121 | [4] -0.082 | [5] 0.034 | [6] -0.006 | [7] -0.093 | [8] -0.03 | [9] 0.063 | [10] 0.158

IFRD1 (UniProt O00458)
inactive: [1] -0.047 | [2] 0.076 | [3] -0.075 | [4] 0.046 | [5] -0.016 | [6] -0.015 | [7] 0.064 | [8] 0.024 | [9] -0.048 | [10] -0.015

HSPH1 (UniProt Q92598)
inactive: [1] -0.008 | [2] -0.026 | [3] 0.003 | [4] 0.009 | [5] -0.027 | [6] -0.009 | [7] -0.035 | [8] -0.004 | [9] -0.012 | [10] -0.029

IDH3G (UniProt P51553)
inactive: [1] -0.037 | [2] -0.056 | [3] 0.013 | [4] 0 | [5] -0.007 | [6] -0.098 | [7] 0.06 | [8] -0.029 | [9] -0.006 | [10] 0.032

HSPA9 (UniProt P38646)
inactive: [1] -0.037 | [2] -0.009 | [3] 0.007 | [4] -0.018 | [5] -0.041 | [6] 0.003 | [7] -0.015 | [8] -0.007 | [9] -0.002 | [10] -0.02

ILF2 (UniProt Q12905)
inactive: [1] -0.006 | [2] -0.101 | [3] 0.001 | [4] 0.004 | [5] -0.001 | [6] 0.005 | [7] -0.002 | [8] 0 | [9] 0.016 | [10] 0.006
